The text below walks through data of publication PMC5661651.

Protein sequences, listed by entry. Tags and fused reporters are not part of them.
UniProt P25911: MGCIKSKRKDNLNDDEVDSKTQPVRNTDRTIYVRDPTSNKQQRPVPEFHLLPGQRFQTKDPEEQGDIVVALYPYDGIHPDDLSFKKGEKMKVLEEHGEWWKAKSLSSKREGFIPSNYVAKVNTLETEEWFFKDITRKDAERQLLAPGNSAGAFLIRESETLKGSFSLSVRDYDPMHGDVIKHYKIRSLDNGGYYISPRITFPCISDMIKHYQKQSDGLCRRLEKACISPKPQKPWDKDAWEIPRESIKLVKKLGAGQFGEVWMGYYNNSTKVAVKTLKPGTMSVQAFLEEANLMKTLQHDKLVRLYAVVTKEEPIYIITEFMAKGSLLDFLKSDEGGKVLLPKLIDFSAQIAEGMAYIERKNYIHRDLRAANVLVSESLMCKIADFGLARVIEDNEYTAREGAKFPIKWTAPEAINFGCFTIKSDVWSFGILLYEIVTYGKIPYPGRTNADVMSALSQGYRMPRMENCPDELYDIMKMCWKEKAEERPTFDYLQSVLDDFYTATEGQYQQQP
UniProt P26040: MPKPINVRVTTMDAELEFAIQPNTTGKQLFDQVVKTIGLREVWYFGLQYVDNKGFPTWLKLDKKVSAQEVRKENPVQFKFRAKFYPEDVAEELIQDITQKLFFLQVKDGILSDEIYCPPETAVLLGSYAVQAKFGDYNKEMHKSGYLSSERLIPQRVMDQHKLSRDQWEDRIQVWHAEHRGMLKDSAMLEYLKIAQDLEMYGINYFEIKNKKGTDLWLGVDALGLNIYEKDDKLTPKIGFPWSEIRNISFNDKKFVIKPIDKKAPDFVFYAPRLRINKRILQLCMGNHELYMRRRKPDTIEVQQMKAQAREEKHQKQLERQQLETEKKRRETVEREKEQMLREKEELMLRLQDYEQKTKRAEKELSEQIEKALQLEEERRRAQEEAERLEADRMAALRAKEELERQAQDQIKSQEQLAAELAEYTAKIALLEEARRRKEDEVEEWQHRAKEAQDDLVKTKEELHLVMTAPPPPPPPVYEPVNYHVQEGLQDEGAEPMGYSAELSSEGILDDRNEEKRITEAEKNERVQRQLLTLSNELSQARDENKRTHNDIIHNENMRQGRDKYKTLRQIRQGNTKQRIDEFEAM

This assay concerns the target Lyn (mouse (endogenous in MH-S)) (UniProt P25911). The experiment in a line: co-IP; siNC-treated (WT) MH-S cells infected with PAO1 (MOI 20:1, 30 min); whole-cell lysates mixed with anti-Lyn or anti-IL-6R antibody coupled to protein A/G agarose beads; immunoblot.

Results are given in words; binding and its absence hold for the method and conditions named. Binding seen in cells or lysates may run through a third protein. Some entries that bind do so weakly or less than the wild type.

On to Ezrin (from UniProt P26040 1-586), for which the binding result is recorded as “binds”.
